The list shows a part of the results. Shown are side measurements of this screen, not its main read-out; they come without a call. Compounds called inactive in the main read-out are mostly missing here. Words in brackets tell the shape of the fitted curve; partial curves, single points and poor fits give uncertain potencies.
Test: qHTS Assay for Lipid Storage Modulators in Drosophila S3 Cells;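 for cell number change: cells counted by Cell Tracker Red CMTPX staining in the red channel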
Conditions: BODIPY lipid droplet fluorescence, 18-24 h; for cell number change: measured here: cell count max response, cells fed with added oleic acid
Method in brief: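 Laser-scanning cytometry quantifies lipid droplet accumulation (500–530 nm total intensity; droplet/cell object ratio) in oleic acid-fed (400 uM added) Drosophila S3 cells treated with a concentration series. 20 uM Triacsin C defined 100% inhibition.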

[1] = measured here: lipid fluorescence (Fed channel) AC50, cells fed with added oleic acid
[2] = measured here: cell number channel AC50, cells fed with added oleic acid

Row | SMILES | cell number change [%] | AC50 [1] | AC50 [2]
1 | CCc1ccc(C2CC(c3ccc(C)cc3)Nc3nc(N)nn32)cc1 (stereo not drawn) | 8.48 | 2.91 µM [rising, partial curve] | –
2 | O=c1cc(CN2CCC(Cc3ccccc3)CC2)nc2sccn12 | -2.71 | – | –
3 | O=C(CNC(=O)c1ccc(Br)o1)Nc1cccc(-c2cnc3ccccc3n2)c1 | -43.4 | 18.4 µM [falling, single point] | 20.6 µM [falling, single point]
4 | COc1ncc(-c2ccc3c(c2)S(=O)(=O)c2cccc(C(=O)O)c2C3=O)cn1 | 19.9 | 6.51 µM [falling, single point] | –
5 | CCCNC(=O)NC(=O)CN1CCCC1c1ccc2c(c1)OCCO2 (stereo not drawn) | 26.5 | – | –
6 | COc1ccc(CCNCC(=O)Nc2ccc(C)c(S(=O)(=O)N(C)C)c2)cc1 | -2.2 | – | –
7 | O=C(CSc1ccccc1F)NCC1(N2CCCCC2)CCCCC1 | 1.25 | 29.1 µM [rising, single point] | –
8 | CCOc1cccc(CNc2ccc(O)cc2)c1OCc1ccccc1Cl | -69.4 | 16.4 µM [falling, single point] | 29.1 µM [falling, single point]
9 | CN1CCN(c2ccc([N+](=O)[O-])cc2/C=N/NC(=O)c2ccc(F)cc2)CC1 | 28.1 | – | –
10 | COc1cc(/C=C(/C#N)c2ccc(C)cc2)ccc1Oc1ccc([N+](=O)[O-])cn1 | – | 1.3 µM [rising, full curve] | 1.3 µM [rising, full curve]
11 | COc1ccc(CNC(=O)COC(=O)c2ccc(OCc3c(C)noc3C)cc2)cc1OC | -79.8 | 0.00517 µM [falling, full curve, poor fit] | 1.84 µM [falling, partial curve]
12 | Cc1ccc(C)c(S(=O)(=O)N2CCN(C(=O)CNC(=O)c3ccc4ccccc4c3)CC2)c1 | -10 | – | –
13 | O=C(CSc1nnc(-c2ccco2)o1)Nc1c(F)cccc1F | – | 0.092 µM [falling, full curve] | –
14 | Cc1noc2ncc(C(=O)c3cc(F)ccc3O)cc12 | – | 4.11 µM [rising, single point] | –
15 | N#C/C(=C\c1c(Oc2ccccc2F)nc2ccccn2c1=O)C(=O)NC1CCS(=O)(=O)C1 (stereo not drawn) | 23 | 29.1 µM [falling, single point] | –
16 | Cc1cc(C)cc(NC(=O)c2cccc(NC3=NC4CS(=O)(=O)CC4S3)c2)c1 (stereo not drawn) | -15 | 16.4 µM [falling, partial curve, poor fit] | –
17 | CC1CCCN(C(=O)c2cc(-c3ccco3)nc3ccccc23)C1 (stereo not drawn) | -48.8 | 1.03 µM [falling, full curve, poor fit] | 1.03 µM [falling, full curve, poor fit]
18 | CNC(=S)Nc1cc(OC)ccc1OC | – | 0.731 µM [falling, full curve] | –
19 | Cc1ccccc1OCC(=O)N/N=C1\SCC(=O)N1Cc1ccccc1 | -13.7 | 20.6 µM [rising, single point] | –
20 | CCN(CC)CCOC(=O)c1ccc(Cl)cc1 | 15.2 | 29.1 µM [rising, single point] | –

Structural class: those above with a furan ring, fused or not
Row | SMILES | cell number change [%] | AC50 [1] | AC50 [2]
3 | O=C(CNC(=O)c1ccc(Br)o1)Nc1cccc(-c2cnc3ccccc3n2)c1 | -43.4 | 18.4 µM [falling, single point] | 20.6 µM [falling, single point]
13 | O=C(CSc1nnc(-c2ccco2)o1)Nc1c(F)cccc1F | – | 0.092 µM [falling, full curve] | –
17 | CC1CCCN(C(=O)c2cc(-c3ccco3)nc3ccccc23)C1 (stereo not drawn) | -48.8 | 1.03 µM [falling, full curve, poor fit] | 1.03 µM [falling, full curve, poor fit]

Further records

Row | SMILES | cell number change [%] | AC50 [1] | AC50 [2]
21 | Cc1onc(-c2c(F)cccc2Cl)c1C(=O)NCc1ccc2c(c1)OCO2 | 4.32 | 0.103 µM [rising, full curve, poor fit] | –
22 | O=C(Oc1ccccc1-c1csnn1)c1cccs1 | -13.6 | – | 4.61 µM [falling, single point]
23 | CCc1nnc2c(NCCc3ccc(OC)c(OC)c3)nc3ccccc3n12 | 8.33 | 14.6 µM [rising, partial curve] | –
24 | COC(=O)c1cc(S(=O)(=O)NCc2ccc(S(N)(=O)=O)cc2)oc1C | -49.1 | – | –
25 | CCSc1nc(C)cc(Oc2ccc(=O)n(C)n2)n1 | – | 6.51 µM [falling, single point] | –
26 | COc1ccc2nc3ccccc3nc2c1NC(=O)c1ccc(Cl)cc1 | 36 | 16.4 µM [falling, single point] | 7.31 µM [rising, partial curve]
27 | COc1ccccc1C(=O)Nc1ccc(S(=O)(=O)N2CCc3ccccc32)cc1 | – | 23.1 µM [rising, partial curve] | –
28 | N#C/C(=C\c1ccc(Cl)cc1)c1nc(-c2ccco2)cs1 | -12.7 | 18.4 µM [falling, single point] | –
29 | Cn1c(SCC(=O)N2CCOCC2)nnc1-c1ccc2ncccc2c1 | – | 0.13 µM [falling, full curve, poor fit] | 1.03 µM [falling, full curve]
30 | COc1ccc(OC)c(NC(=O)Cn2c(CCC(=O)O)ccc2-c2ccc(C)cc2)c1 | – | – | 0.58 µM [falling, single point]
31 | S=C(NCCCN1CCOCC1)Nc1ccc(Nc2ccccc2)cc1 | 7.12 | 0.501 µM [falling, single point] | 0.501 µM [falling, single point]
32 | COc1cc(Cl)c(CN2CCC(CCC(=O)NC3CC3)CC2)cc1OC | -33.9 | 20.6 µM [falling, partial curve, poor fit] | 0.58 µM [falling, partial curve, poor fit]
33 | COc1cc(CCCN2CCNC[C@@H]2C(C)O)cc(OC)c1OC (stereo partly drawn) | 18.5 | 0.13 µM [rising, full curve, poor fit] | –
34 | S=c1nc2ccccc2c2nc(-c3cccnc3)[nH]n12 | 26.1 | 29.1 µM [rising, single point] | –
35 | Cc1ccc2c(c1)NC(=O)C(CC(=O)NCCCN1CCCCC1C)O2 (stereo not drawn) | -3.99 | 29.1 µM [rising, single point] | –
36 | COc1ccc(NC(=O)c2cc(C3CC3)nc3c2cnn3C(C)C)cc1OC | -14.5 | 1.64 µM [falling, partial curve] | –
37 | Cc1ccc(NC(=O)C2CCCN(S(=O)(=O)c3c(C)noc3C)C2)cc1F (stereo not drawn) | -17.2 | 2.06 µM [falling, single point] | 0.103 µM [falling, full curve, poor fit]
38 | COc1ccc(-c2csc(NC(=O)c3ccccc3S(C)(=O)=O)n2)cc1 | 57.4 | 5.8 µM [rising, full curve] | 0.92 µM [rising, partial curve, poor fit]
39 | CC(C)C[C@H](NC(=O)c1cc2cc(Cl)ccc2n1C)C(=O)N1CCC(C(=O)O)CC1 | 16.8 | – | 6.51 µM [rising, partial curve]
40 | Cc1ccc(C(=O)OCC(=O)NCc2ccco2)cc1C | -20.3 | 0.58 µM [rising, single point] | –

Row | SMILES | cell number change [%] | AC50 [1] | AC50 [2]
41 | CCOc1ccc2[nH]c3nc(SCC(=O)NC4CC4)nnc3c2c1 | – | 0.146 µM [falling, full curve, poor fit] | –
42 | CCCCn1c(-c2cccc(Br)c2)nc2cc3[nH]c(=O)c(C(C)C)nc3cc21 | -23.3 | 29.1 µM [falling, single point] | –
43 | Cc1nn(C2CCS(=O)(=O)C2)c(Cl)c1/C=C/C(=O)OCC(=O)Nc1ccccc1[N+](=O)[O-] (stereo not drawn) | – | 0.184 µM [rising, full curve] | 0.00461 µM [rising, full curve, poor fit]
44 | COC(=O)c1cc(Br)c(=O)n(-c2nccs2)c1 | -2.64 | 0.58 µM [rising, full curve] | –
45 | Cc1nn(Cc2noc(C(=O)NCCc3ccccn3)n2)c(C)c1Br | 18.5 | 29.1 µM [falling, single point] | –
46 | COc1cc(-c2nc3sc(C)c(C)c3c(=O)o2)cc(OC)c1OC | 27.4 | 29.1 µM [rising, partial curve] | –
47 | O=C(COc1ccc2ccccc2c1)N/N=C/C1CC=CCC1 (stereo not drawn) | 23.7 | 4.11 µM [rising, single point] | –
48 | CCOc1ccc(OCCC(=O)N(CCC2=CCCCC2)c2c(N)n(Cc3ccccc3)c(=O)[nH]c2=O)cc1 | -23.9 | – | –
49 | Cc1ccc(CONC(=O)c2cccc([N+](=O)[O-])c2)cc1 | -31.2 | – | 11.6 µM [falling, single point]
50 | CCCCn1c(N)c(N(CC(C)C)C(=O)c2cc(Cl)nc3ccccc23)c(=O)[nH]c1=O | -25 | – | 4.11 µM [falling, full curve, poor fit]
51 | CCOC(=O)c1sc(Nc2ccccc2)nc1C | 74.5 | 6.51 µM [falling, single point] | 6.51 µM [falling, single point]
52 | Nc1ccc(-c2nnc(-c3ccc(N)cc3)o2)cc1 | 4.93 | 0.58 µM [rising, partial curve, poor fit] | –
53 | O=c1c2ccccc2nc(/C=C/c2ccc(Cl)cc2)n1CCO | -30.8 | – | 0.0651 µM [falling, full curve, poor fit]
54 | COc1ccc(/C=C/C(=O)OCC(=O)NCc2ccccc2)cc1OC | 39.7 | – | 29.1 µM [rising, partial curve]
55 | C(=N\Nc1nc2ccccc2[nH]1)/c1cccc2nccnc12 | 39.4 | – | 29.1 µM [rising, single point]
56 | Cc1ccc(NS(=O)(=O)c2cc(C(=O)N3CCOCC3)ccc2C)cc1 | -39.8 | 29.1 µM [falling, single point] | 8.2 µM [falling, partial curve]
57 | Cc1cc(=O)[nH]n(CCO)c1=O | 9.49 | – | –
58 | CCN(C(=O)COC(=O)c1ccc2ccccc2c1)c1c(N)n(Cc2ccccc2)c(=O)[nH]c1=O | -37 | 29.1 µM [falling, single point] | 29.1 µM [falling, single point]

Source: PubChem BioAssay AID2685 (National Center for Advancing Translational Sciences (NCATS), 2010)
